Here are results for three molecules from article PMC12062237.

For this test, the target named is T1, Cdc16-TAP (S. cerevisiae (endogenous in yeast)) (UniProt P09798).
T1 sequence: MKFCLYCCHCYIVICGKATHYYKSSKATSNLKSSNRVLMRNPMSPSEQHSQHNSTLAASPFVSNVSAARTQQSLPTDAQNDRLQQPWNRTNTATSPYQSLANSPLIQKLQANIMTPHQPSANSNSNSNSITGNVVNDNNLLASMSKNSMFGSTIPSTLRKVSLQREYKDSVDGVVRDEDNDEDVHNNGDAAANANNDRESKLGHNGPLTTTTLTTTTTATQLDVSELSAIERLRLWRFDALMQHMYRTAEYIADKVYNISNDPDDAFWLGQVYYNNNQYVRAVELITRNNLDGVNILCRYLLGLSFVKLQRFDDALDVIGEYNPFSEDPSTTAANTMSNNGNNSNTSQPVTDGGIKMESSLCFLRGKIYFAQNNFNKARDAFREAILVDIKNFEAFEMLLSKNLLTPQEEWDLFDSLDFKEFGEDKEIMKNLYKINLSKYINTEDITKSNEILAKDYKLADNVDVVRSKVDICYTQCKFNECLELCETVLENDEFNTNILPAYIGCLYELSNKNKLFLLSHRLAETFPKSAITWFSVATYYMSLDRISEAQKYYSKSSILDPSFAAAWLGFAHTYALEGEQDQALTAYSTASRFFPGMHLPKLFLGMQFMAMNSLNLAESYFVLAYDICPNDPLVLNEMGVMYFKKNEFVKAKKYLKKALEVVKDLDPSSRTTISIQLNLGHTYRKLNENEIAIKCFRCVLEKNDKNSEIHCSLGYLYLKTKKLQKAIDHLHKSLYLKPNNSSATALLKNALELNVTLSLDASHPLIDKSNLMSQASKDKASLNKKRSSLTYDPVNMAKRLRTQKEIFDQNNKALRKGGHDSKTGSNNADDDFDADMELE
Nature of the test: co-IP; APC/C from lysate of a CDC16-TAP yeast strain on IgG-Dynabeads, washed with 500 mM NaCl buffer; subunits seen as 32P-labelled bands after a reaction with Clb2-Cdk1-Cks1 (SDS-PAGE, autoradiography), named by previous studies.

No constants are given. Whether binding was seen depends on the method and setting. Binding seen in cells or lysates may run through a third protein. Some binding calls cover weakened binding; strength is not graded here.

B1: Cdc23 (protein, UniProt P16522 1-626)
chain: MNDDSQDKIIHDIRIQLRKAATELSRWKLYGSSKWAAEALAGLAEAIDVDQTHSLADESPLRNKQGVPKQMFEIPQNGFGLSETEYDLYLLGSTLFDAKEFDRCVFFLKDVTNPYLKFLKLYSKFLSWDKKSQESMENILTTGKFTDEMYRANKDGDGSGNEDINQSGHQRANLKMVSNEHESQSNISSILKEINTFLESYEIKIDDDEADLGLALLYYLRGVILKQEKNISKAMSSFLKSLSCYSFNWSCWLELMDCLQKVDDALLLNNYLYQNFQFKFSENLGSQRTIEFNIMIKFFKLKVFEELNGQLEDYFEDLEFLLQVFPNFTFLKAYNATISYNNLDYVTAESRFDDIVKQDPYRLNDLETYSNILYVMQKNSKLAYLAQFVSQIDRFRPETCCIIANYYSARQEHEKSIMYFRRALTLDKKTTNAWTLMGHEFVELSNSHAAIECYRRAVDICPRDFKAWFGLGQAYALLDMHLYSLYYFQKACTLKPWDRRIWQVLGECYSKTGNKVEAIKCYKRSIKASQTVDQNTSIYYRLAQLYEELEDLQECKKFMMKCVDVEELLEGIVTDETVKARLWLAIFEIKAGNYQLAYDYAMGVSSGTSQEIEEARMLARECRRHM
In the case of B1, the binding entry is recorded as “binds”.

B2: Apc9 (protein, UniProt Q12107 1-265)
chain: MNQNGDKNEGKLFQLPSLPPWKTPRFNKANFNNFTTPLRKRSTRVINDDSMPITGEVLEERTADDLYGINMDVDEVDYLNTLSHIEEEKQYDYSPFCERNTLRESRIDSFLKAERAAHCLVFHKVGHLDGIDSYRPDIDIMCGEEANKYDSANPEGNGSMLLESVPGCNKEDLERLSRREFVTNSKPNMRRLDDIINHETNALKSFWNDSGLVNSLQSHHLHEEYLLLQEELKNVYKIKCHDRVPIESLRDKCRRHYSNEDSSFL
Consider B2, for which the binding result was “binds”.

B3: Cdc27 (protein, UniProt P38042 1-758)
chain: MAVNPELAPFTLSRGIPSFDDQALSTIIQLQDCIQQAIQQLNYSTAEFLAELLYAECSILDKSSVYWSDAVYLYALSLFLNKSYHTAFQISKEFKEYHLGIAYIFGRCALQLSQGVNEAILTLLSIINVFSSNSSNTRINMVLNSNLVHIPDLATLNCLLGNLYMKLDHSKEGAFYHSEALAINPYLWESYEAICKMRATVDLKRVFFDIAGKKSNSHNNNAASSFPSTSLSHFEPRSQPSLYSKTNKNGNNNINNNVNTLFQSSNSPPSTSASSFSSIQHFSRSQQQQANTSIRTCQNKNTQTPKNPAINSKTSSALPNNISMNLVSPSSKQPTISSLAKVYNRNKLLTTPPSKLLNNDRNHQNNNNNNNNNNNNNNNNNNNNNNNNIINKTTFKTPRNLYSSTGRLTTSKKNPRSLIISNSILTSDYSITLPEIMYNFALILRSSSQYNSFKAIRLFESQIPSHIKDTMPWCLVQLGKLHFEIINYDMSLKYFNRLKDLQPARVKDMEIFSTLLWHLHDKVKSSNLANGLMDTMPNKPETWCCIGNLLSLQKDHDAAIKAFEKATQLDPNFAYAYTLQGHEHSSNDSSDSAKTCYRKALACDPQHYNAYYGLGTSAMKLGQYEEALLYFEKARSINPVNVVLICCCGGSLEKLGYKEKALQYYELACHLQPTSSLSKYKMGQLLYSMTRYNVALQTFEELVKLVPDDATAHYLLGQTYRIVGRKKDAIKELTVAMNLDPKGNQVIIDELQKCHMQE
For B3, the binding entry is “binds”.
